From PubChem BioAssay record AID504749 (NCATS, 2011).

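Malaria parasite (P. falciparum) lines kept in red blood cells; parasite DNA is measured by SYBR Green fluorescence after lysis, 72 h after compound addition. Each compound was titrated across a series from about 0.000037 to 29 µM. The number is the fitted AC50, the concentration giving a half-maximal change in signal; a lower value means higher potency, whether the curve shows a decrease or an increase. Calls follow the curve class and fit quality: every row here is inconclusive, covering signal-raising curves and weak, poorly fitted, partial or highest-dose-only inhibition curves.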

Values are in µM. All entries here are filed as inconclusive. Only part of the assay is shown, chiefly results filed as inconclusive. A potency from a partial, single-point or poor curve is only a rough figure.

For CN1CCN(C(c2ccccc2)c2ccccc2)CC1 [CP194] the result was fitted potency 3.612 µM (inhibitor, partial curve).
For CN1CCN(C(c2ccccc2)c2ccccc2)CC1 [CP265] the result was fitted potency 3.981 µM (inhibitor, single point).
For CN1CCN(C(c2ccccc2)c2ccccc2)CC1 [GB4] the result was fitted potency 2.869 µM (inhibitor, partial curve).
For CN1CCN(C(c2ccccc2)c2ccccc2)CC1 [DIV14] the result was fitted potency 3.22 µM (inhibitor, partial curve).
For CN1CCN(C(c2ccccc2)c2ccccc2)CC1 [AA1029] the result was fitted potency 3.548 µM (inhibitor, partial curve).
For CN1CCN(C(c2ccccc2)c2ccccc2)CC1 [P93_24] the result was fitted potency 3.162 µM (inhibitor, partial curve, poor fit).
For CN1CCN(C(c2ccccc2)c2ccccc2)CC1 [7G8] the result was fitted potency 2.512 µM (inhibitor, partial curve, poor fit).
For CN1CCN(C(c2ccccc2)c2ccccc2)CC1 [DIV17] the result was fitted potency 7.208 µM (inhibitor, single point).
For CN1CCN(C(c2ccccc2)c2ccccc2)CC1 [CP269] the result was fitted potency 9.074 µM (inhibitor, partial curve, poor fit).
For CN1CCN(C(c2ccccc2)c2ccccc2)CC1 [ATS95] the result was fitted potency 3.548 µM (inhibitor, partial curve).
For CN1CCN(C(c2ccccc2)c2ccccc2)CC1 [N140] the result was fitted potency 7.08 µM (inhibitor, single point).
For CN1CCN(C(c2ccccc2)c2ccccc2)CC1 [CP329] the result was fitted potency 4.548 µM (inhibitor, partial curve, poor fit).
For CN1CCN(C(c2ccccc2)c2ccccc2)CC1 [CP237] the result was fitted potency 2.818 µM (inhibitor, partial curve).
For CN1CCN(C(c2ccccc2)c2ccccc2)CC1 [CP203] the result was fitted potency 4.053 µM (inhibitor, partial curve).
For CN1CCN(C(c2ccccc2)c2ccccc2)CC1 [P94_40] the result was fitted potency 3.548 µM (inhibitor, partial curve).
For CN1CCN(C(c2ccccc2)c2ccccc2)CC1 [CP335] the result was fitted potency 2.279 µM (inhibitor, partial curve, poor fit).
For CN1CCN(C(c2ccccc2)c2ccccc2)CC1 [PC26] the result was fitted potency 5.726 µM (inhibitor, single point).
For Oc1cc2cc(CCN3CCN(c4nsc5ccccc45)CC3)c(Cl)cc2[nH]1 [N140] the result was fitted potency 14.13 µM (inhibitor, single point).
For Oc1cc2cc(CCN3CCN(c4nsc5ccccc45)CC3)c(Cl)cc2[nH]1 [W2] the result was fitted potency 19.01 µM (inhibitor, single point).
For Oc1cc2cc(CCN3CCN(c4nsc5ccccc45)CC3)c(Cl)cc2[nH]1 [P93_24] the result was fitted potency 17.78 µM (inhibitor, single point).
For Oc1cc2cc(CCN3CCN(c4nsc5ccccc45)CC3)c(Cl)cc2[nH]1 [CP260] the result was fitted potency 17.78 µM (inhibitor, single point).
For Oc1cc2cc(CCN3CCN(c4nsc5ccccc45)CC3)c(Cl)cc2[nH]1 [CP237] the result was fitted potency 17.78 µM (inhibitor, single point).
For Oc1cc2cc(CCN3CCN(c4nsc5ccccc45)CC3)c(Cl)cc2[nH]1 [DIV17] the result was fitted potency 16.94 µM (inhibitor, single point).
For Oc1cc2cc(CCN3CCN(c4nsc5ccccc45)CC3)c(Cl)cc2[nH]1 [AS120] the result was fitted potency 17.78 µM (inhibitor, single point).
For Oc1cc2cc(CCN3CCN(c4nsc5ccccc45)CC3)c(Cl)cc2[nH]1 [PC15] the result was fitted potency 11.22 µM (inhibitor, single point).
For Oc1cc2cc(CCN3CCN(c4nsc5ccccc45)CC3)c(Cl)cc2[nH]1 [parasite line A] the result was fitted potency 17.78 µM (inhibitor, single point).
For Oc1cc2cc(CCN3CCN(c4nsc5ccccc45)CC3)c(Cl)cc2[nH]1 [TAB109] the result was fitted potency 17.78 µM (inhibitor, single point).
For Oc1cc2cc(CCN3CCN(c4nsc5ccccc45)CC3)c(Cl)cc2[nH]1 [GB4] the result was fitted potency 13.46 µM (inhibitor, single point).
For Oc1cc2cc(CCN3CCN(c4nsc5ccccc45)CC3)c(Cl)cc2[nH]1 [TAB165] the result was fitted potency 10 µM (inhibitor, single point).
For Oc1cc2cc(CCN3CCN(c4nsc5ccccc45)CC3)c(Cl)cc2[nH]1 [DIV30] the result was fitted potency 13.46 µM (inhibitor, partial curve).
For Oc1cc2cc(CCN3CCN(c4nsc5ccccc45)CC3)c(Cl)cc2[nH]1 [PC26] the result was fitted potency 13.46 µM (inhibitor, single point).
For Oc1cc2cc(CCN3CCN(c4nsc5ccccc45)CC3)c(Cl)cc2[nH]1 [CP250] the result was fitted potency 4.467 µM (inhibitor, single point).
For Oc1cc2cc(CCN3CCN(c4nsc5ccccc45)CC3)c(Cl)cc2[nH]1 [3D7] the result was fitted potency 11.22 µM (inhibitor, single point).